Data published in the supplement of paper PMC12819154, “High-throughput peptide-centric local stability assay extends protein–ligand identification to membrane proteins, tissues and bacteria” (Nature Structural & Molecular Biology, 2025).
Some of the results follow. Small differences around the control level are noise.

Sequences of proteins named here, by UniProt entry; tags and fusion partners are left off. A change or cut given only in a name is not applied to a line headed by its entry.
UniProt Q7LBR1: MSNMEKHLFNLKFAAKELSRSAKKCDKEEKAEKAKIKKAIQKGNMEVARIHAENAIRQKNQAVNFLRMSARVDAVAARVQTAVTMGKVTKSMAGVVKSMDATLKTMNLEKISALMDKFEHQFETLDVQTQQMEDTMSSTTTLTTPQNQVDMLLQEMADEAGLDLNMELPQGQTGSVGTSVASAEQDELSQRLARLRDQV
UniProt Q86UA1: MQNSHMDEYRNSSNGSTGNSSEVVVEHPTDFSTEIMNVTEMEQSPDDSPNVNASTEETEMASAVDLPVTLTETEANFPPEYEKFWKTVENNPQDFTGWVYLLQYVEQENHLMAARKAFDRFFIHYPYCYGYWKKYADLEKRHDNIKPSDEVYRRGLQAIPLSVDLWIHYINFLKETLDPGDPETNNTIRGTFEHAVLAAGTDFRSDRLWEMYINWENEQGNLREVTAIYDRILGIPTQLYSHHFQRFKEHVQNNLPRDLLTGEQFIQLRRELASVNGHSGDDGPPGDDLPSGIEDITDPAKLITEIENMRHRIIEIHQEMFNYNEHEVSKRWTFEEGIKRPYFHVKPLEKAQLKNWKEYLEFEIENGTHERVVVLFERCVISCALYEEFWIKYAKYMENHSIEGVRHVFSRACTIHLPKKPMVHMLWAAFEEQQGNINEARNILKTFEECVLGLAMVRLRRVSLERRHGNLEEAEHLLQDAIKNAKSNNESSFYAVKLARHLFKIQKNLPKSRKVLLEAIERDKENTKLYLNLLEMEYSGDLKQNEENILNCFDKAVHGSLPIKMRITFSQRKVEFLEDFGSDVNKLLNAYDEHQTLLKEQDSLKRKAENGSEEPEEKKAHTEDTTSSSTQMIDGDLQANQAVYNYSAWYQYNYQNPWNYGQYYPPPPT
UniProt Q7Z478: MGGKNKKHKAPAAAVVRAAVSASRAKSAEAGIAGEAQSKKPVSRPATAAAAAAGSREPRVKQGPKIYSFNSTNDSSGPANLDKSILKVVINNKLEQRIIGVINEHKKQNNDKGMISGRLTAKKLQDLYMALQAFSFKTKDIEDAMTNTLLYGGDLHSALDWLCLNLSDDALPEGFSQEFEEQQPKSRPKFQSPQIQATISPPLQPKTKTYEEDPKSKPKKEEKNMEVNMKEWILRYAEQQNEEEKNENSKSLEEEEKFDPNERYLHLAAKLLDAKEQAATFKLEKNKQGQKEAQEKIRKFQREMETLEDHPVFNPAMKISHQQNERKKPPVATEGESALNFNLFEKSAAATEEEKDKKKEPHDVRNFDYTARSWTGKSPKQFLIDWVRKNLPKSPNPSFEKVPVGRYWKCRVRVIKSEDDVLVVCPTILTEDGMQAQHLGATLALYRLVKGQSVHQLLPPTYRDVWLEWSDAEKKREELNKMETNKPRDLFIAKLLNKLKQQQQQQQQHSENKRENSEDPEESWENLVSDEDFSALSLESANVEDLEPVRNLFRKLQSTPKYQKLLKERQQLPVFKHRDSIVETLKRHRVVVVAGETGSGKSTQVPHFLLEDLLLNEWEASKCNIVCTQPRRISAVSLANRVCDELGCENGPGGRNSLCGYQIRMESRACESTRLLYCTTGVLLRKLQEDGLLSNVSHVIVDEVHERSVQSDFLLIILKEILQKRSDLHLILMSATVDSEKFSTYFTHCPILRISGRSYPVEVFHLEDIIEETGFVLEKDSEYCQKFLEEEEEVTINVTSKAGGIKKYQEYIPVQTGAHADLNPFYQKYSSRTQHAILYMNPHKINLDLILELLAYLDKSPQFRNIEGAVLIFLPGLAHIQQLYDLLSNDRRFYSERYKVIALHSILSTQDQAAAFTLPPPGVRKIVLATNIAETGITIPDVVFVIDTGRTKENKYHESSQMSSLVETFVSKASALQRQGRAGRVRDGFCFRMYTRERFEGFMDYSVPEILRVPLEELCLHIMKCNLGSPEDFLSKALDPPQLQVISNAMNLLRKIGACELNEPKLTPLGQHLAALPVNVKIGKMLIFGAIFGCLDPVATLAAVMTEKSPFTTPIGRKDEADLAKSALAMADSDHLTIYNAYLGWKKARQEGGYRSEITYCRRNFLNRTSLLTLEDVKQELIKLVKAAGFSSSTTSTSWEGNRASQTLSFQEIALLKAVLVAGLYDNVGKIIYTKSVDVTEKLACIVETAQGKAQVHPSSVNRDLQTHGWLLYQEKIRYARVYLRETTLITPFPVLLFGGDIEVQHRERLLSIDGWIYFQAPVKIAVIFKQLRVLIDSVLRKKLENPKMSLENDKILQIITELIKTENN
UniProt Q7Z3E2: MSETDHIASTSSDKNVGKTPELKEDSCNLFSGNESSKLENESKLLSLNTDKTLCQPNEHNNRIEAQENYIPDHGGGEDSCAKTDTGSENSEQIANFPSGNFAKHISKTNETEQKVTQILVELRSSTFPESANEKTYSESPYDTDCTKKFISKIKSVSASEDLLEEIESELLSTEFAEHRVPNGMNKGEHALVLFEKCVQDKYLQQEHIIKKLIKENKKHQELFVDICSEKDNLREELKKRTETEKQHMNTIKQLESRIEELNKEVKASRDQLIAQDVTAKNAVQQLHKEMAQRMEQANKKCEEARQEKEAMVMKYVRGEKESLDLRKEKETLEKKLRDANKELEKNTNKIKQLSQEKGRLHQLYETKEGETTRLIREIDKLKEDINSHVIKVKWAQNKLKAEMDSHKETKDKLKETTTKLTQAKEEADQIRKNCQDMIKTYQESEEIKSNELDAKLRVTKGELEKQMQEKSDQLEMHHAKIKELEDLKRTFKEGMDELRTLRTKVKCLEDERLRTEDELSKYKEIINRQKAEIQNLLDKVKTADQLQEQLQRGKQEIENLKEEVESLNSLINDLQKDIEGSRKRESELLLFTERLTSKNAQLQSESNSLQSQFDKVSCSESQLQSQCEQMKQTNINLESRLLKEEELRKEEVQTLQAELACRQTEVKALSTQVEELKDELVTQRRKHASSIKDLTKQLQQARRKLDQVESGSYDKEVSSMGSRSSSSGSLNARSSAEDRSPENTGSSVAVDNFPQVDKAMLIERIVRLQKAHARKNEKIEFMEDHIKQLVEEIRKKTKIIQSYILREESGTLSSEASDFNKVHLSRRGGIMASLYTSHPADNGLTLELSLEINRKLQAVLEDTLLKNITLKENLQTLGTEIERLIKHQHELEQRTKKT
UniProt Q6ZMW3: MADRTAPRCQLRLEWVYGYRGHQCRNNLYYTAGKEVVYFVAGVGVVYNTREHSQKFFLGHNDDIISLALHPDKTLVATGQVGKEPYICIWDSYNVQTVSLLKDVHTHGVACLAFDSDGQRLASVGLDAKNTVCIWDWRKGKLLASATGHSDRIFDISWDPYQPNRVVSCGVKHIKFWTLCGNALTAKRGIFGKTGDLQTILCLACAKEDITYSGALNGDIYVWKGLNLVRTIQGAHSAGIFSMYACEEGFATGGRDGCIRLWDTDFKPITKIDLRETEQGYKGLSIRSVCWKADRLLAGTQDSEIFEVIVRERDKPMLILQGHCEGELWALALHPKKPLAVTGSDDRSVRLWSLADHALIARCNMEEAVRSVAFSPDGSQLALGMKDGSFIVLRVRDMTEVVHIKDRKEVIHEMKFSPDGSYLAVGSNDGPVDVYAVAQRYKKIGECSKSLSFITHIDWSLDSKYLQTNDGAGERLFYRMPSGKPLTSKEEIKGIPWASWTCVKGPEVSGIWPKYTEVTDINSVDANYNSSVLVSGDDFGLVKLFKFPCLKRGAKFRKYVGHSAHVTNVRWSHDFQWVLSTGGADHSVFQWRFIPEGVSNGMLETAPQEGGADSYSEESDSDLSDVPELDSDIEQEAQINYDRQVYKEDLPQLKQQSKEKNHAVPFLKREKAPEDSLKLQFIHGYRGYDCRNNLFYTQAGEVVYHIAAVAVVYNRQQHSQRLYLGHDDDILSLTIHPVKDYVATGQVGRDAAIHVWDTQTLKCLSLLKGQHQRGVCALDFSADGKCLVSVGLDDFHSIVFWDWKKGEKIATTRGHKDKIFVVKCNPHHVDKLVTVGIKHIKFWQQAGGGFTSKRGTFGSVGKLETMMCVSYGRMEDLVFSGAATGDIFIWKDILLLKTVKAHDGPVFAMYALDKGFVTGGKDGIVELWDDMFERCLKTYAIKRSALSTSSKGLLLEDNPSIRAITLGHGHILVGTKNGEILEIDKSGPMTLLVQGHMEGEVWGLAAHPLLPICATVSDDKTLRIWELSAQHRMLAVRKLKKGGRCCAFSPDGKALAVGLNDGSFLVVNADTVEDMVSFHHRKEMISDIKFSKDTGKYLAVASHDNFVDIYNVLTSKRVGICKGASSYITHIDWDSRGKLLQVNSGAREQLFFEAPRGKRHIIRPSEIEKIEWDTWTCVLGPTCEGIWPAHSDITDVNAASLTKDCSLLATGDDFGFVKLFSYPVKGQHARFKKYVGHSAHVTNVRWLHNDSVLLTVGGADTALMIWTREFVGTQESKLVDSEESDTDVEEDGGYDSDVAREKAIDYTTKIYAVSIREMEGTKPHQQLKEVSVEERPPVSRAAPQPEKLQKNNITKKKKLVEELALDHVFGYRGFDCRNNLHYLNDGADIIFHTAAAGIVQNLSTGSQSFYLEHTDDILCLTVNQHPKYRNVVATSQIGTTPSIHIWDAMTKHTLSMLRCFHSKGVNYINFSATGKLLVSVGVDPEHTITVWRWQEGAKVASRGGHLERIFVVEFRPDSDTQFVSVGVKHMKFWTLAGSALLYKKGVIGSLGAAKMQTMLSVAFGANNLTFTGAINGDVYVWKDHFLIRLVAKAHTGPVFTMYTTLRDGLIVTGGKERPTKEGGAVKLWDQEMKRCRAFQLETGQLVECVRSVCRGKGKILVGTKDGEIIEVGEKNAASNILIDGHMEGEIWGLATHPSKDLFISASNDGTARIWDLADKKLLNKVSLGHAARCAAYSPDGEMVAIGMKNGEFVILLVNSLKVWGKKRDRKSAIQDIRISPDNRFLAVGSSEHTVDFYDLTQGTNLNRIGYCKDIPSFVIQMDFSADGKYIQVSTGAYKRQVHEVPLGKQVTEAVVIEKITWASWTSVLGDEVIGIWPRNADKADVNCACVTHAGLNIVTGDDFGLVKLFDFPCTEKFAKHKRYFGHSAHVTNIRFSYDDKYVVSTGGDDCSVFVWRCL
UniProt Q7Z4Q2: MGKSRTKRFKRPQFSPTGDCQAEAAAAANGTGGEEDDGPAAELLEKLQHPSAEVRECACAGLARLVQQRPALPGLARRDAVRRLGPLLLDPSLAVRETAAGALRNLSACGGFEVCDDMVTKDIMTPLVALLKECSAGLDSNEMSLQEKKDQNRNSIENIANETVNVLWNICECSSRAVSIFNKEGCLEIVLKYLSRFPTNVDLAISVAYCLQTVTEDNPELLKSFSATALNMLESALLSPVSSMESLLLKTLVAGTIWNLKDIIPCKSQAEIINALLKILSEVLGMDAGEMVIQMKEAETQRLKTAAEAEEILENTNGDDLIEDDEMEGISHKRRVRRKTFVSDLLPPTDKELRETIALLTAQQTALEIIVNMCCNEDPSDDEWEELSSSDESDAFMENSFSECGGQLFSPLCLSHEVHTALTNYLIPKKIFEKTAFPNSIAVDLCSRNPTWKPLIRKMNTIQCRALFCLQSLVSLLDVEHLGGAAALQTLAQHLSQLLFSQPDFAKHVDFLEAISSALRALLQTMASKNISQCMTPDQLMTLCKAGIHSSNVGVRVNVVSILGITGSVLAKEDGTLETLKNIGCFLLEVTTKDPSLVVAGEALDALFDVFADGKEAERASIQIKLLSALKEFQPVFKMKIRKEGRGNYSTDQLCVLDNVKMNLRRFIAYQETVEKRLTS
UniProt Q86TJ2: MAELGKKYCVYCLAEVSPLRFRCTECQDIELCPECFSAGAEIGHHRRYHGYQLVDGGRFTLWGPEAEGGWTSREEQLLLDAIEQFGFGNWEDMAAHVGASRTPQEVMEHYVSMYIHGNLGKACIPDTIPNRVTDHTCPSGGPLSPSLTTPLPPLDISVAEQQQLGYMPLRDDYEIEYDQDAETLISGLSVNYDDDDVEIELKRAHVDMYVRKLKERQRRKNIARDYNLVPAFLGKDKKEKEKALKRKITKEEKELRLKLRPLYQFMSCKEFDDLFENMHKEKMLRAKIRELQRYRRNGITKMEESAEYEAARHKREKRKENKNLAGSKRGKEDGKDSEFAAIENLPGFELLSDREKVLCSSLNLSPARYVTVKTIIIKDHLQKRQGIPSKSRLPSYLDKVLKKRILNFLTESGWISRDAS
UniProt Q6ZQW0: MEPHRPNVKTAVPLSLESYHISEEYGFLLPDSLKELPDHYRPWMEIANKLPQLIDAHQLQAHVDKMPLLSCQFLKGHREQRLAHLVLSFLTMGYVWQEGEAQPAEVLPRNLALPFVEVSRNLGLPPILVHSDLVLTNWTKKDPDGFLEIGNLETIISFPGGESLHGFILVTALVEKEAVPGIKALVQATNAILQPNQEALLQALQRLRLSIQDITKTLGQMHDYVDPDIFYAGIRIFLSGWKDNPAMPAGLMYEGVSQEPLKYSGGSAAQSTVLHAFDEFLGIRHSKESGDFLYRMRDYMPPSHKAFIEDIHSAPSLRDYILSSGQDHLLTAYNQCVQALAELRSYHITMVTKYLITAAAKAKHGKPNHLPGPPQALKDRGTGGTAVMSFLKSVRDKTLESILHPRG

compound: CN[C@@H]1C[C@H]2O[C@@](C)([C@@H]1OC)n1c3ccccc3c3c4c(c5c6ccccc6n2c5c31)C(=O)NC4 [staurosporine]; test: log2 fold change of tryptic peptide abundance, ligand vs vehicle (limited proteolysis) (log2 ratio); higher = more trypsin-susceptible (destabilized); settings: ligand concentration: 20 uM; sample: K562 cleared lysate; digestion: 4 min, 22 C (HT-PELSA RT4min, Orbitrap Astral)

Target | log2 fold change
TTC7B (peptide sequence: LIANDDMAELLLGESK, peptide start residue: 37) (UniProt Q86TV6) | 0.387
GLRX5 (peptide sequence: DYAAYNVLDDPELR, peptide start residue: 84) (UniProt Q86SX6) | 0.257
EPM2AIP1 (peptide sequence: MEVDEALVFRPEWTQR, peptide start residue: 10) (UniProt Q7L775) | 0.379
DOK3 (peptide sequence: LESWEVR, peptide start residue: 99) (UniProt Q7L591) | 0.248
LARP4 (peptide sequence: HNPTVTGHQEQTYLQK, peptide start residue: 413) (UniProt Q71RC2) | -0.108
EP400P1 (peptide sequence: MQHVSSSQSSQR, peptide start residue: 1) (UniProt Q6ZTU2) | -0.265
UniProt Q6ZUT1 (peptide sequence: SDGFDEESQR, peptide start residue: 61) | -0.2
PHLDB1 (peptide sequence: ELEQQLQESAR, peptide start residue: 736) (UniProt Q86UU1) | 0.426
CHMP1B (peptide sequence: IHAENAIR, peptide start residue: 50) (UniProt Q7LBR1) | 0.124
UniProt Q86UF2 (peptide sequence: GPGNPLDHQITNER, peptide start residue: 1169) | -0.122
UniProt Q86UX2 (peptide sequence: SVSLIVFLTDGKPTVGETHTLK, peptide start residue: 397) | -0.608
ASRGL1 (peptide sequence: AATVGYGILR, peptide start residue: 30) (UniProt Q7L266) | 0.0354
UniProt Q7Z7B0 (peptide sequence: KEDDVMASGTVKR, peptide start residue: 45) | -0.404
UniProt Q6ZS17 (peptide sequence: PLVQQPEPLPIQVAFR, peptide start residue: 406) | 0.469
HUWE1 (peptide sequence: EYNLEQQRR, peptide start residue: 3647) (UniProt Q7Z6Z7) | 1.32
MRPL55 (peptide sequence: MLAMPIDLDTLSPEER, peptide start residue: 74) (UniProt Q7Z7F7) | 0.312
PRPF39 (peptide sequence: ILGIPTQLYSHHFQR, peptide start residue: 232) (UniProt Q86UA1) | 0.547
UniProt Q6ZWB6 (peptide sequence: GAAAAVPSGPGAHGGGGGGGAQDK, peptide start residue: 181) | -0.0942
UniProt Q70Z53 (peptide sequence: GQFFCGNKYCDK, peptide start residue: 171) | -0.69

Given as a markdown table: entries from further up

| Target | log2 fold change |
| --- | --- |
| TTC7B (peptide sequence: LIANDDMAELLLGESK, peptide start residue: 37) (UniProt Q86TV6) | 0.387 |
| GLRX5 (peptide sequence: DYAAYNVLDDPELR, peptide start residue: 84) (UniProt Q86SX6) | 0.257 |
| EPM2AIP1 (peptide sequence: MEVDEALVFRPEWTQR, peptide start residue: 10) (UniProt Q7L775) | 0.379 |
| DOK3 (peptide sequence: LESWEVR, peptide start residue: 99) (UniProt Q7L591) | 0.248 |
| LARP4 (peptide sequence: HNPTVTGHQEQTYLQK, peptide start residue: 413) (UniProt Q71RC2) | -0.108 |
| EP400P1 (peptide sequence: MQHVSSSQSSQR, peptide start residue: 1) (UniProt Q6ZTU2) | -0.265 |
| UniProt Q6ZUT1 (peptide sequence: SDGFDEESQR, peptide start residue: 61) | -0.2 |
| PHLDB1 (peptide sequence: ELEQQLQESAR, peptide start residue: 736) (UniProt Q86UU1) | 0.426 |
| CHMP1B (peptide sequence: IHAENAIR, peptide start residue: 50) (UniProt Q7LBR1) | 0.124 |
| UniProt Q86UF2 (peptide sequence: GPGNPLDHQITNER, peptide start residue: 1169) | -0.122 |
| UniProt Q86UX2 (peptide sequence: SVSLIVFLTDGKPTVGETHTLK, peptide start residue: 397) | -0.608 |

Next entries:

Target | log2 fold change
C11orf96 (peptide sequence: SFLQSLECLRR, peptide start residue: 395) (UniProt Q7Z7L8) | -0.148
USP37 (peptide sequence: TNVSSQTPSAK, peptide start residue: 289) (UniProt Q86T82) | -0.353
SPRED1 (peptide sequence: SSNIRPSPFEDLNAR, peptide start residue: 170) (UniProt Q7Z699) | 0.128
UniProt Q86T03 (peptide sequence: CPCNCLLICK, peptide start residue: 99) | -0.327
DHX29 (peptide sequence: KEPHDVR, peptide start residue: 359) (UniProt Q7Z478) | 0.426
DHDDS (peptide sequence: DQATVTEQLLR, peptide start residue: 273) (UniProt Q86SQ9) | 0.317
UniProt Q7Z3E2 (peptide sequence: LLSLNTDKTLCQPNEHNNR, peptide start residue: 44) | 0.645
ZNF813 (peptide sequence: NSHEAPMTEIKK, peptide start residue: 107) (UniProt Q6ZN06) | -0.384
MOB3B (peptide sequence: TCPVMSGGPK, peptide start residue: 86) (UniProt Q86TA1) | 0.17
SND1 (peptide sequence: EVEVEVESMDK, peptide start residue: 593) (UniProt Q7KZF4) | -0.148
UniProt Q7Z494 (peptide sequence: HSSSGDTFSLK, peptide start residue: 1306) | 0.54
UniProt Q6ZMW3 (peptide sequence: IWDLADK, peptide start residue: 1713) | 0.0344
HEATR3 (peptide sequence: DIMTPLVALLK, peptide start residue: 122) (UniProt Q7Z4Q2) | -0.394
N4BP2 (peptide sequence: TSSVQSDKK, peptide start residue: 810) (UniProt Q86UW6) | 1.27
TADA2B (peptide sequence: EFDDLFENMHKEK, peptide start residue: 270) (UniProt Q86TJ2) | -0.425
UniProt Q6ZQW0 (peptide sequence: LSIQDITK, peptide start residue: 222) | -0.169
UniProt Q7Z434 (peptide sequence: VPTSMVLTK, peptide start residue: 363) | 0.287
UniProt Q86UE6 (peptide sequence: LQALAPDLFHGLR, peptide start residue: 149) | -0.113
